“And” between values parts separate entries of the source, which are not always exact repeats. Equal values may be shown once. About 5,400 (1.8%) of roughly 300,000 compounds were called active. The inconclusive results got no clear call from the source; some entries with a clear call stand among them for comparison. Calls come from the whole dose curve; tested in HEK293 cells. A potency beside an inconclusive call is a rough fit, not a confirmed value.
Experiment: qHTS for inhibitors of binding or entry into cells for Marburg Virus
Settings: Marburg virus pseudotyped entry inhibition, cell reporter; series mostly up to 37.8 µM
Potency is the fitted concentration of half-maximal effect.

Row | SMILES | Potency
1 | O=C(Nc1nc2n(n1)C(c1ccc(F)cc1)C=C(c1ccc(Cl)cc1)N2)c1ccc([N+](=O)[O-])cc1 (stereo not given) | active: 2.82 µM
2 | CN(C)CCNC(C(=O)Nc1cc(Cl)cc(Cl)c1)c1ccccc1 (stereo not given) | inconclusive: 11.2 µM [inhibitor, partial curve, poor fit]
3 | CCN(CC)C(=O)C1CCCN(C(=S)Nc2cccc3ccccc23)C1 (stereo not given) | inactive
4 | CCN(CC)CCN(C(=O)c1ccc(S(=O)(=O)N2CCCC2)cc1)c1nc2cc(C)cc(C)c2s1 | inconclusive: 35.5 µM [inhibitor, single point]
5 | Cc1ccc(C(=O)NCC(=O)Nc2cc(C)ccn2)cc1 | inconclusive: 1.12 µM [activator, full curve, poor fit]
6 | Cc1ccc(-c2cc(C(=O)N3CCN(c4ccccc4O)CC3)c3ccccc3n2)cc1 | inconclusive: 2.82 µM [inhibitor, full curve, poor fit]
7 | CCN(c1ccccc1)S(=O)(=O)c1ccc(OC)c(NC(=O)C2=NN(c3ccccc3)C(=O)CC2)c1 | inconclusive: 0.112 µM [inhibitor, full curve, poor fit]
8 | CC(C)(O)C(=O)NN(Cc1ccccc1)c1ccccc1 | inconclusive: 15.8 µM [activator, single point]
9 | COc1ccc(CCNC(=O)COC(=O)/C=C/c2ccc3c(c2)OCO3)cc1 | inconclusive: 22.4 µM [activator, single point]
10 | O=C(c1ccc(CS(=O)(=O)c2ccc(Br)cc2)o1)N1CCN(c2ccc(F)cc2)CC1 | inactive and inconclusive: 3.98 µM [activator, full curve, poor fit]
11 | c1csc(CSc2nnc3sc4ccccc4n23)c1 | inconclusive: 2.24 µM [activator, full curve, poor fit]
12 | c1cnc2ccc(-c3ccc4ncccc4c3)cc2c1 | inconclusive: 10 µM [inhibitor, partial curve, poor fit]
13 | CSc1nc(N)c(C#N)c(-c2ccc(Cl)cc2)c1C#N | inconclusive: 12.6 µM [inhibitor, single point]
14 | CCCC(=O)N1CCN(c2ccc(NC(=O)c3ccc4c(c3)OCCO4)cc2)CC1 | inactive
15 | CC(=O)Cc1nsc(NC(=O)c2ccc(COc3cccc(C)c3)o2)n1 | inactive
16 | Fc1cccc(NC(=S)Nc2cccnc2)c1 | inactive
17 | CCC(=O)NC(=S)Nc1ccc(NC(=O)c2ccco2)cc1 | inconclusive: 20 µM [activator, partial curve, poor fit]
18 | Cc1ccc(N(C)C(=O)N2CCN(S(=O)(=O)c3ccc4ccccc4c3)CC2)cc1 | inconclusive: 4.61 µM [inhibitor, single point]
19 | COc1ccc(C/C(N)=N/n2cnnc2)cc1 | inactive
20 | O=C(COc1cccc2ccccc12)N/N=C/c1ccco1 | inactive
21 | O=C(Cn1nc(-c2ccccc2)oc1=O)OCC(=O)c1ccccc1 | inconclusive: 4.47 µM [inhibitor, single point]
22 | O=C(Nc1csnn1)OCc1ccccc1 | inconclusive: 3.16 µM [activator, single point]
23 | COc1ccc(Cl)cc1S(=O)(=O)Nc1ncn[nH]1 | inconclusive: 14.1 µM [inhibitor, single point]
24 | CC1(C)Cc2ccccc2-c2n[nH]c(=S)n21 | inconclusive: 0.92 µM [inhibitor, full curve, poor fit]

Quoted from above, entries 6–9
Row | SMILES | Potency
6 | Cc1ccc(-c2cc(C(=O)N3CCN(c4ccccc4O)CC3)c3ccccc3n2)cc1 | inconclusive: 2.82 µM [inhibitor, full curve, poor fit]
7 | CCN(c1ccccc1)S(=O)(=O)c1ccc(OC)c(NC(=O)C2=NN(c3ccccc3)C(=O)CC2)c1 | inconclusive: 0.112 µM [inhibitor, full curve, poor fit]
8 | CC(C)(O)C(=O)NN(Cc1ccccc1)c1ccccc1 | inconclusive: 15.8 µM [activator, single point]
9 | COc1ccc(CCNC(=O)COC(=O)/C=C/c2ccc3c(c2)OCO3)cc1 | inconclusive: 22.4 µM [activator, single point]

Later entries

Row | SMILES | Potency
25 | O=C(NCCc1ccco1)C(=O)NCCC1CCCCN1S(=O)(=O)c1ccccc1 (stereo not given) | inconclusive: 35.5 µM [inhibitor, single point]
26 | CCOc1ccc(NC(=O)CCc2c(C)nc3cc(-c4ccccc4OC)nn3c2C)cc1 | inactive
27 | C/C(=N\NS(=O)(=O)c1ccc(C)cc1)c1cccs1 | inactive
28 | CCC(C)NC(=O)COc1ccc(S(=O)(=O)N2CCOCC2)cc1 (stereo not given) | inactive
29 | CCN(CC)S(=O)(=O)c1cccc(NN=c2c(=O)c3ccccc3c2=O)c1 | inactive
30 | N#CC1=C(N)Oc2c(ccc3ccccc23)C1c1ccsc1 (stereo not given) | inconclusive: 5.62 µM [inhibitor, single point]
31 | O=C(/C=C/c1ccccc1)OCN1C(=O)c2ccccc2C1=O | inactive
32 | Cc1ccccc1-n1c(C)nnc1SCC(=O)N1CC(=O)Nc2ccccc21 | inconclusive: 0.651 µM [activator, partial curve]
33 | O=S(=O)(NCC(c1ccc2c(c1)OCO2)N1CCN(c2ccccc2)CC1)c1ccccc1 (stereo not given) | inconclusive: 25.1 µM [inhibitor, single point]
34 | CCC1CCCCN1C(=S)Nc1ccc(S(=O)(=O)Nc2ncccn2)cc1 (stereo not given) | inactive
35 | COc1cccc(-c2cc3nc4c(c(N5CCC6(CC5)OCCO6)n3n2)CCCC4)c1 | inconclusive: 14.6 µM [inhibitor, partial curve]
36 | COc1ccc2nc(N3C(=O)/C(=C/c4ccc(Cl)cc4)NC3=S)sc2c1 | inactive
37 | Nc1ccc2c(c1)C(=O)N(CCCCCC(=O)O)C2 | inconclusive: 11.2 µM [activator, single point]
38 | CCN(CC)C(=S)SCC(=O)NC12CC3CC(CC(C3)C1)C2 | inconclusive: 35.5 µM [inhibitor, single point]
39 | CCCCOc1ccccc1C1NC(=O)NC(C)=C1C(=O)OCc1ccco1 (stereo not given) | inactive
40 | CC(C)(C)C1CCc2c(sc3nc(SCC(N)=O)nc(N)c23)C1 (stereo not given) | inconclusive: 35.5 µM [inhibitor, single point]
41 | Cc1c(NC(=S)NC(=O)c2ccc(Cl)cc2)c(=O)n(-c2ccccc2)n1C | inconclusive: 1.26 µM [inhibitor, single point]
42 | N#Cc1ccccc1-n1c(N)c(C(=O)N2CCCC2)sc1=S | inconclusive: 14.1 µM [inhibitor, single point]
43 | CC(C)c1ccc(Nc2nc(CC(=O)O)cs2)cc1 | inconclusive: 12.6 µM [inhibitor, partial curve]
44 | C=C(C)Cn1c(N2CCN(c3ccc(OC)cc3)CC2)nc2c1c(=O)n(C)c(=O)n2C | inconclusive: 20 µM [inhibitor, partial curve, poor fit]
45 | Cc1ccccc1/C=C1\C(=O)Nc2ccc(F)cc21 | inconclusive: 25.1 µM [inhibitor, partial curve, poor fit]
46 | Cc1ccc(-c2nnc3c4ccccc4c(-c4ccccc4)nn23)cc1 | inactive
47 | CCOC(=O)N1CCN(C(=O)C2COc3ccccc3O2)CC1 (stereo not given) | inconclusive: 1.83 µM [inhibitor, partial curve, poor fit]
48 | CCOC(=O)C1=C(C)NC(=O)NC1c1ccc(-c2ccc(Cl)cc2)o1 (stereo not given) | inconclusive: 5.62 µM [activator, single point]

Row | SMILES | Potency
49 | O=C(NC(=S)NCCC1=CCCCC1)c1cncc(Br)c1 | inconclusive: 6.31 µM [inhibitor, single point]
50 | CCOC(=O)c1cnc2ccc(OCC)cc2c1N1CCN(c2ccccc2)CC1 | inconclusive: 14.6 µM [inhibitor, partial curve, poor fit]
51 | CCCN(CCC)CC(O)Cn1c2ccccc2c2ccccc21 (stereo not given) | active: 7.08 µM
52 | c1csc(C2=NNC(=NC3CCCCC3)SC2)c1 | inactive
53 | O=C(O)c1cccc(-n2cccc2/C=C\[N+](=O)[O-])c1 | inactive
54 | Cc1ccc2nsnc2c1S(=O)(=O)Nc1cccc2nsnc12 | inactive
55 | NC(=O)c1ccccc1NC(=O)Cc1cccs1 | inconclusive: 35.5 µM [activator, single point]
56 | CC1CCC(NC(=O)c2ccc3c(c2)N(Cc2ccccc2F)C(=O)c2ccccc2S3(=O)=O)CC1 (stereo not given) | inconclusive: 35.5 µM [inhibitor, single point]
57 | COc1ccc(-n2c(SCc3ccc([N+](=O)[O-])cc3)nnc2-c2ccc(C)cc2)cc1 | inconclusive: 10 µM [inhibitor, partial curve, poor fit]
58 | Cc1c(Cl)cccc1NC(=S)NCc1ccccc1Cl | inconclusive: 1.58 µM [inhibitor, partial curve, poor fit]
59 | Cn1c(=O)c2[nH]c(NN=Cc3ccc(Br)cc3)nc2n(C)c1=O | inconclusive: 20 µM [inhibitor, single point]
60 | O=C(COC(=O)c1cc(=O)c2ccccc2o1)Nc1ccccc1F | inconclusive: 5.62 µM [activator, single point]
61 | O=C(c1ccco1)N1CCN(c2ncnc3c2[nH]c2ccc(Cl)cc23)CC1 | inconclusive: 20.6 µM [inhibitor, single point]
62 | CCOc1ccc(C(=O)CN2C(=O)NC3(CCCCCC3)C2=O)cc1 | inactive
63 | CC(=O)Oc1cccc2c1C(=O)C1CC=CC(OC(C)=O)C1C2=O (stereo not given) | inconclusive: 0.1 µM [inhibitor, full curve, poor fit]
64 | Cc1cccc(NC(=O)c2ccc3oc(=O)c(S(=O)(=O)c4ccc(F)cc4)cc3c2)c1C | inactive
65 | CCOc1cc(S(=O)(=O)NC2CCCC2)ccc1Cl | inconclusive: 35.5 µM [inhibitor, single point]
66 | CCCN1CCN(C(=O)Cn2cnc3sc(C)c(S(=O)(=O)N4CCC(C)CC4)c3c2=O)CC1 | inactive
67 | COc1ccc(S(=O)(=O)N(CC(=O)N2CCN(C)CC2)C2CCCCC2)cc1OC | inactive
68 | Cc1cccc(N2CN=c3s/c(=C\c4ccccn4)c(=O)n3C2)c1 | inconclusive: 1 µM [inhibitor, partial curve, poor fit]
69 | Clc1nc(NCCc2ccccc2)c2cn[nH]c2n1 | inconclusive: 17.8 µM [inhibitor, partial curve, poor fit]
70 | CC1(CC(=O)N/N=C/c2ccc(-c3cccc(C(F)(F)F)c3)o2)OCCO1 | inconclusive: 6.31 µM [activator, single point]
